In patent US8124964B2, “Field-effect transistor” (Nippon Kayaku Kabushiki Kaisha, priority 2006, dated 2012):

Test: Semiconductor characteristics of coated field-effect transistor (semiconductor parameter analyzer, under the atmosphere)
[1] = Example 1 process: 0.4% chloroform ink, spin coating, heat treatment under argon 80° C. 30 minutes before gold electrode deposition
[2] = Example 5 process: 0.4% chloroform ink, spin coating, heat treatment under nitrogen 80° C. 30 minutes after gold electrode deposition
[3] = Example 7: 1% toluene ink, dip-coating on comb-type electrode, 80° C. 5 minutes, bottom-contact type
[4] = Example 8: 1% toluene ink, inkjet recording method, 80° C. 5 minutes, top-contact type
[5] = Example 9: 1% toluene ink, inkjet recording method on comb type electrode, 80° C. 5 minutes, bottom-contact type
[6] = Example 10: 1% tetrahydrofuran ink, spin coating, 80° C. 10 minutes, top-contact type
[7] = Example 11: 0.5% cyclopentanone ink, spin coating, 80° C. 10 minutes, top-contact type

| Structure (SMILES) | ON/OFF ratio [1] | carrier mobility [1] | threshold [1] [V] | ON/OFF ratio [2] | carrier mobility [2] [cm^2/Vs] | threshold [2] [V] | also measured |
| --- | --- | --- | --- | --- | --- | --- | --- |
| CCCCCCCCCCCCc1ccc2c(c1)[se]c1c3ccc(CCCCCCCCCCCC)cc3[se]c21 [Compound No. 51, 2,7-Didodecyl-[1]benzoselenopheno[2,3-b]benzoselenophene] | 1×10^4 | 0.012 cm^2/Vs | −30 | – | – | – | – |
| CCCCCCCCCCCCc1ccc2c(c1)sc1c3ccc(CCCCCCCCCCCC)cc3sc21 [Compound No. 20, 2,7-Didodecyl[1]benzothieno[3,2-b][1]benzothiophene] | 1×10^7 | 0.61 cm^2/Vs | −25 | 1×10^7 | 1.2 | −25 | – |
| c1ccc(-c2ccc3c(c2)sc2c4ccc(-c5ccccc5)cc4sc32)cc1 [Comparative Example 1, reference compound] | – | – | – | – | – | – | semiconductor characteristics (current flow) (Comparative Example 2: chloroform filtrate (0.02% by mass) as ink, same operation as in Example 1): no current flow |
| CCCCCCCCc1ccc2c(c1)sc1c3ccc(CCCCCCCC)cc3sc21 [Compound No. 16, 2,7-Dioctyl[1]benzothieno[3,2-b][1]benzothiophene] | 1×10^7 | 0.66 cm^2/Vs | −47 | 1×10^7 | 0.9 | −47 | ON/OFF ratio [3]: 1×10^7; carrier mobility [3]: 0.59 cm^2/Vs; threshold [3]: −52 V; ON/OFF ratio [4]: 1×10^4; carrier mobility [4]: 0.086 cm^2/Vs; threshold [4]: −50 V; ON/OFF ratio [5]: 1×10^6; carrier mobility [5]: 0.085 cm^2/Vs; threshold [5]: −56 V; ON/OFF ratio [6]: 1×10^8; carrier mobility [6]: 2.5 cm^2/Vs; threshold [6]: −58 V; ON/OFF ratio [7]: 1×10^8; carrier mobility [7]: 4.5 cm^2/Vs; threshold [7]: −64 V |
| CCCCCCC#Cc1ccc2c(c1)sc1c3ccc(C#CCCCCCC)cc3sc21 [Compound No. 88, 2,7-Di(1-octynyl)[1]benzothieno[3,2-b][1]benzothiophene] | 1×10^2 | 4×10^−5 cm^2/Vs | −35 | – | – | – | – |
